No constants are given. Whether binding was seen depends on the method and setting. Some results given as binding are weak or reduced against the parent protein; the word gives no strength.
Target: low density lipoprotein (LDL) (UniProt P04114)
Test: SPR, immobilized LDL, ALK1 ectodomain with equimolar BMP9

By UniProt entry, the sequences of proteins in these tests, tags left out. Where a name states a change or a piece, a line headed by the entry shows the natural chain unless it says otherwise. Residues count along the entry.
UniProt P04114, residues 28-4563: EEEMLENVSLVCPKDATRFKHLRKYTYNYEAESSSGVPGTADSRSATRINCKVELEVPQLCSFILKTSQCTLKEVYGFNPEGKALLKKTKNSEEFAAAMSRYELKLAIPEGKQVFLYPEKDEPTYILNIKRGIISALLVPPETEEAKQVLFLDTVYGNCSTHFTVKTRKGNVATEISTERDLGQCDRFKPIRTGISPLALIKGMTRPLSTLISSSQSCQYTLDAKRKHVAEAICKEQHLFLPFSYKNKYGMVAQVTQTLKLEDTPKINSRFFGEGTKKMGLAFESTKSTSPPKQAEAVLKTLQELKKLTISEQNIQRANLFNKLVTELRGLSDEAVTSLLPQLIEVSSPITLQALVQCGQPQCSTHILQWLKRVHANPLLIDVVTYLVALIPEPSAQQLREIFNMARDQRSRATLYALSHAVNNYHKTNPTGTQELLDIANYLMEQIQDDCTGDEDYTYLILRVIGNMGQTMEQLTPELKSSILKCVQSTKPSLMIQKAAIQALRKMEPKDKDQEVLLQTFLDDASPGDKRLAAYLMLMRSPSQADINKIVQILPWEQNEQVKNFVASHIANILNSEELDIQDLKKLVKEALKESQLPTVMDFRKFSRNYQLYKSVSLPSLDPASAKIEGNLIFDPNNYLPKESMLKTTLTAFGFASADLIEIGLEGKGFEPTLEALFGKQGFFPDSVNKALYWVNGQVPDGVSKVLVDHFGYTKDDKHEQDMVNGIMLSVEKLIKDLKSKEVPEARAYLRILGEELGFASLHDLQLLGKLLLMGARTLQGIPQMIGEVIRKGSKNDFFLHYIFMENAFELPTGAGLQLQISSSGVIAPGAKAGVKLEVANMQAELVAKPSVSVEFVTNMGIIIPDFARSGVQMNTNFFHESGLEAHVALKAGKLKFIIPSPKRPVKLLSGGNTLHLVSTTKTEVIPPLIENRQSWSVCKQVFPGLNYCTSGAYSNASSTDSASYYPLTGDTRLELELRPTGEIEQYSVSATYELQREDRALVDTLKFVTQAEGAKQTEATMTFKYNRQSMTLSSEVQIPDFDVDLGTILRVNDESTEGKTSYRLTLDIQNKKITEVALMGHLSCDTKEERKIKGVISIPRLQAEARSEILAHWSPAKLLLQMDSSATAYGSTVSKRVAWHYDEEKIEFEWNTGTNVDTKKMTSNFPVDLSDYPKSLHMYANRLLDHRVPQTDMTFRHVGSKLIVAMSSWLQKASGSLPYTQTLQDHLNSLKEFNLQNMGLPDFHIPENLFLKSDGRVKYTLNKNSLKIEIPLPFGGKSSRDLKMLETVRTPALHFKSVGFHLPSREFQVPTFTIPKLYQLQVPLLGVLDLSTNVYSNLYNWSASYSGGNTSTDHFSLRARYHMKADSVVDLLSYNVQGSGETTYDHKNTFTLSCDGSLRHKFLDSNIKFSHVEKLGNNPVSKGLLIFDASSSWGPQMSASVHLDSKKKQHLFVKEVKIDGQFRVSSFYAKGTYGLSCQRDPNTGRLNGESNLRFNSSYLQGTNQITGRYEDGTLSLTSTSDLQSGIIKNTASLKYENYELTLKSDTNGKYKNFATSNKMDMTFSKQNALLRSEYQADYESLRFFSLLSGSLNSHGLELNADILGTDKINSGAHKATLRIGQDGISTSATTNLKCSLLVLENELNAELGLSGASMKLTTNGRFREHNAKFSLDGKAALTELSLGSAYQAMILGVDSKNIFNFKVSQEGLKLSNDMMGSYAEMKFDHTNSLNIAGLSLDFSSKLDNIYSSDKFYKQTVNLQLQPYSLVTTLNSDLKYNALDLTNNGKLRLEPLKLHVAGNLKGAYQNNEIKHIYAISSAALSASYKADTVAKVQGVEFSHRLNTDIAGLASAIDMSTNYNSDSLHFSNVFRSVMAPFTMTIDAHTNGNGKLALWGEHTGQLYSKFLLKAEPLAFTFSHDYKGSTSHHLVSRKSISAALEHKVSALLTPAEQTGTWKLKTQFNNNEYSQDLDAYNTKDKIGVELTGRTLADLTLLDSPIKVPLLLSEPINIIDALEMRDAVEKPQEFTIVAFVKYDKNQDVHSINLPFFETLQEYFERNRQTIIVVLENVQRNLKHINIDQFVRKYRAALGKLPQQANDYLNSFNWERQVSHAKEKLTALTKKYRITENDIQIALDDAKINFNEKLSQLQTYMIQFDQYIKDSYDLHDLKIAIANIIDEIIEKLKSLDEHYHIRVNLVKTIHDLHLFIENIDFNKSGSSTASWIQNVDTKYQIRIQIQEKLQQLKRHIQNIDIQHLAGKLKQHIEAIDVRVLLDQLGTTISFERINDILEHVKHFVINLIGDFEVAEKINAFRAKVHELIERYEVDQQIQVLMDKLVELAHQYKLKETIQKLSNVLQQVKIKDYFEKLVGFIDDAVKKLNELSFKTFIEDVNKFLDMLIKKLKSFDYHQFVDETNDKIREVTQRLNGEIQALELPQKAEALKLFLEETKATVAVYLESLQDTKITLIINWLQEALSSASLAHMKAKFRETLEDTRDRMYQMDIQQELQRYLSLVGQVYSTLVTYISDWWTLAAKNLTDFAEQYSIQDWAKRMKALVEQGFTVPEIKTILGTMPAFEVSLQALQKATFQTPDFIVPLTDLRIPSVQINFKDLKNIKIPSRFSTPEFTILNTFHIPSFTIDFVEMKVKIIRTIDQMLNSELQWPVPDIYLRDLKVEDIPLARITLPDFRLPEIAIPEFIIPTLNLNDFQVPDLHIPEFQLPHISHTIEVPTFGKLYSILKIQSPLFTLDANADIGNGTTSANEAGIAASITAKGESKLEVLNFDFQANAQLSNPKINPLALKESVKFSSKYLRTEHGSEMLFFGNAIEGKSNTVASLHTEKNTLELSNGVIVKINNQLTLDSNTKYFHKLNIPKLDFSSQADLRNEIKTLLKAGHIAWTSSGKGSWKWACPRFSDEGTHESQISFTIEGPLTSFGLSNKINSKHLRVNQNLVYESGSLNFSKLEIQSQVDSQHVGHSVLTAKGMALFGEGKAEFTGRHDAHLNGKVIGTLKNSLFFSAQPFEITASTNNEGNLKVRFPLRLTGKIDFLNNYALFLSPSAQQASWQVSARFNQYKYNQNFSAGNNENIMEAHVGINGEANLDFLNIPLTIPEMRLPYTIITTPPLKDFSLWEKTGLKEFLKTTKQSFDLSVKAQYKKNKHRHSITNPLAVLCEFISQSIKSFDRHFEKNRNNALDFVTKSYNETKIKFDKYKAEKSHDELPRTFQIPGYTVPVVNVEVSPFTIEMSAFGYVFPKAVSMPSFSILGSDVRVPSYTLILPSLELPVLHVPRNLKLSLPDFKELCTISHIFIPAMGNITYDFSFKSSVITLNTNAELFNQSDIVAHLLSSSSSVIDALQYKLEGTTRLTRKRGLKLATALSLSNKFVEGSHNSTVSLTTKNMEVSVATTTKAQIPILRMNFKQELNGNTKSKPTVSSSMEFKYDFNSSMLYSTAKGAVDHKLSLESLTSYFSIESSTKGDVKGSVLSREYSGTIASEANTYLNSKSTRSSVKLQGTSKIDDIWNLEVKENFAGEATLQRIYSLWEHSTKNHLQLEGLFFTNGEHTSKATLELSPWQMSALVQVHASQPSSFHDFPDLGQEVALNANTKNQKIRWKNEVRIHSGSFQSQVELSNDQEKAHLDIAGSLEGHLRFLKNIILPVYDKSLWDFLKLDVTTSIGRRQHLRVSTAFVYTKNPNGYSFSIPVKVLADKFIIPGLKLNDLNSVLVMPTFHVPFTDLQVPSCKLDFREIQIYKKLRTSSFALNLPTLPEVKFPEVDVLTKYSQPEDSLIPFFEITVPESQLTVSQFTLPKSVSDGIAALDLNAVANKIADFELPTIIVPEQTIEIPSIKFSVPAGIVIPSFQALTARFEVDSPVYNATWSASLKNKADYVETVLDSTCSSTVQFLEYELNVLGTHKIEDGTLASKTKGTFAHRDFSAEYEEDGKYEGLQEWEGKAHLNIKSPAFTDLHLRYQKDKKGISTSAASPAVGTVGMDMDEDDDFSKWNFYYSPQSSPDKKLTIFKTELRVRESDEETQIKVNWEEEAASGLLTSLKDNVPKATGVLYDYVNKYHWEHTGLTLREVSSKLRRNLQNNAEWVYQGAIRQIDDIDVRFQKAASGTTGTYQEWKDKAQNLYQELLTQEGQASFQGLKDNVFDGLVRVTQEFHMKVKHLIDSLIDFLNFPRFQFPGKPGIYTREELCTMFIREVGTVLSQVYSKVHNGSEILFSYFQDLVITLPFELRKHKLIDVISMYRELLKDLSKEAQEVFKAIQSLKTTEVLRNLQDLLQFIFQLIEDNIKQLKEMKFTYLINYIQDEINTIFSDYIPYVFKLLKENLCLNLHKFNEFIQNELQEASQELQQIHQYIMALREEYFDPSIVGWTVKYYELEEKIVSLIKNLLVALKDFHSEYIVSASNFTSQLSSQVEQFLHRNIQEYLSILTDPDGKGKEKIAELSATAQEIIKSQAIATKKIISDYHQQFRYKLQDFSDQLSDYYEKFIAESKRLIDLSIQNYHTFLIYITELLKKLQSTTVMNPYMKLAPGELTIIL
UniProt Q9UK05: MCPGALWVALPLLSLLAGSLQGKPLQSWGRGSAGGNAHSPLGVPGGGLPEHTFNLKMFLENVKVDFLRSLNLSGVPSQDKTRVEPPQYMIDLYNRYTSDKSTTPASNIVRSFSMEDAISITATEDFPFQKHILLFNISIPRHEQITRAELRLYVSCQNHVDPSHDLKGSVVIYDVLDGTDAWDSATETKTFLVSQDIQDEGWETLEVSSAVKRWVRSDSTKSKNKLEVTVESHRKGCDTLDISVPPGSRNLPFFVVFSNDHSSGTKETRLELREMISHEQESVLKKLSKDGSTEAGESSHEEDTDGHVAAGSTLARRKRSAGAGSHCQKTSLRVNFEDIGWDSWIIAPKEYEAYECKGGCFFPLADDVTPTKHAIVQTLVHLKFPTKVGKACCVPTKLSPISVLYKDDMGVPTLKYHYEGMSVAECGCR

binding: binds
Substance: ALK1 precomplexed with BMP9 (from UniProt Q9UK05 320-429)

Source: patent US20210403549A1
